The data set deals with mouse IgG anti-AFP. As to the kind of experiment: Labelling of mouse IgG anti-AFP with dipyrrometheneboron difluoride dyes. The conditions noted are these: determined spectrophotometrically; 10 fold excess of label. It counts as physicochemical. The method, then:
To the solution of 1.5 mg (9.3 nmol) of mouse IgG anti-AFP in 400 μl phosphate buffered saline (10/150 mM, pH 7.4) a 10 fold excess (93 nmol) of compound 2, 4, 5 or 6 in anhydrous N,N-dimethylformamide was added. 40 μl of NaHCO3 (1 M, aq) was added and the mixture was incubated at room temperature for 2 h. The products were purified with NAP-5 gel filtration column (Amersham Pharmacia Biotech, Uppsala, Sweden) using phosphate buffered saline (50/150, 10 mM NaN3, pH 7.4) as eluent. The fast moving coloured fractions were collected. […] The labelling degrees of these protein conjugates (compound 4 and 6) were determined spectrophotometrically. Labelling degrees of 2.1 (compound 4) and 2.3 (compound 6) fluorophores per protein were obtained.

For “Glu-Tau-succinimide derivative of 4,4-difluoro-5-(2-pyrrolyl)-1,3-dimethyl-4-bora-3a,4a-diaza-s-indacene-2-propionic acid [compound 6]”, the labelling degree is reported as 2.3 fluorophores per protein.
Then “Glu-Tau-succinimide derivative of 4,4-difluoro-5-(2-thienyl)-1,3-dimethyl-4-bora-3a,4a-diaza-s-indacene-2-propionic acid [compound 4]”, with 2.1 fluorophores per protein.

(Values after patent US7198958B2, “Method for increasing hydrophilicity of fluorescent label compounds” (Arctic Diagnostics Oy, priority 2001, dated 2007).)
